This assay deals with hRGMc-His (human) (UniProt Q6ZVN8). The experiment in a line: hRGMc-His ELISA. (In general: ELISA stands for enzyme-linked immunosorbent assay.)

The chains behind the UniProt entries cited, without tags or fusion partners. Residues count along the entry.
UniProt Q6ZVN8, residues 36-400: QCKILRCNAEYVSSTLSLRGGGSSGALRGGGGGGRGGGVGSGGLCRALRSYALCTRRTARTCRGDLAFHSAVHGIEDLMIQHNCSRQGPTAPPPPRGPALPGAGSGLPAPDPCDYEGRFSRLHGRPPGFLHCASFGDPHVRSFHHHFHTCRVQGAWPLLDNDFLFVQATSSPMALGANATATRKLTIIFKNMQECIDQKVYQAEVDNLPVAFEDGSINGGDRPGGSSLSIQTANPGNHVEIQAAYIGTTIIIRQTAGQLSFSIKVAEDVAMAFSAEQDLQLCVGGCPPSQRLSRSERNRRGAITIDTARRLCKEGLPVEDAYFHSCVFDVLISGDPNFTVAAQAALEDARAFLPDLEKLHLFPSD

We go through one molecule from patent US20160326240A1.

Results are given in words; binding and its absence hold for the method and conditions named. Some entries that bind do so weakly or less than the wild type.

B1: h5F9.23 (antibody, V domains shown)
VH: EVQLVESGGGLVQPGGSLRLSCAASGFTFSNYGMNWIRQAPGKGLEWIGMIYYDSSEKHYADSVKGRFTISRDNSKNTLYLQMNSLRAEDTAVYYCAKGTTPDYWGQGTMVTVSS
VL: DVVLTQSPLSLPVTLGQPASISCRSSQSLEYSDGYTFLEWFQQRPGQSPRLLIYEVSNRFSGVPDRFSGSGSGTDFTLKISRVEAEDVGVYYCFQATHDPLTFGQGTKLEIKR
B1: the binding entry is recorded as “binds”.
